Data reported in paper PMC6932907.
Results are given in words; binding and its absence hold for the method and conditions named. Binding seen in cells or lysates may run through a third protein. Some binding calls cover weakened binding; strength is not graded here.

Tests used:
[1] = target: T1, Ninjurin2 (human (endogenous in A172 cells, primary human glioma cells and human glioma tissue)) (UniProt Q9NZG7); test: co-IP; 1000 μg total cellular lysates of A172 and primary human glioma cells (P1/P2), pre-cleared with beads; endogenous Ninj2 captured by an anti-Ninj2 antibody overnight, then beads 6-8h; Ninj2-immunoprecipitated proteins tested by Western blotting
T1 sequence: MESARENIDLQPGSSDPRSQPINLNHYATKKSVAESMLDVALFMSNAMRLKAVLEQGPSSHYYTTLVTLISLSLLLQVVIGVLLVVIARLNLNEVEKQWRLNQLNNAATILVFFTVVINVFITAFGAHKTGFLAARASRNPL

[2] = target: T1, Ninjurin2 (human (endogenous in A172 cells, primary human glioma cells and human glioma tissue)); test: co-IP; fresh human glioma tissue lysates from three patients (T1/2/3), same Co-IP assay (anti-Ninj2 capture, Western blotting)

Substance	binding [1]	binding [2]
epidermal growth factor receptor (from UniProt P00533 25-1210)	binds	binds
platelet-derived growth factor receptor β (from UniProt P09619 33-1106)	binds	binds
